Results on two substances are retold here after paper PMC9066866.

By UniProt entry, the sequences of proteins in these tests, tags left out.
UniProt Q96FF9: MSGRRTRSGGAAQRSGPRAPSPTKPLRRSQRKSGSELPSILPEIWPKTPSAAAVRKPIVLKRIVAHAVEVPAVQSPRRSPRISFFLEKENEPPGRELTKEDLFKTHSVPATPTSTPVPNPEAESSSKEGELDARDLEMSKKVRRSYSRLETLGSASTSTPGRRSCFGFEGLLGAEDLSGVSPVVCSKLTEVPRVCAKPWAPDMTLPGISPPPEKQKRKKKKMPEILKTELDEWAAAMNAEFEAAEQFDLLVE

No constants are given. Whether binding was seen depends on the method and setting. Binding seen in cells or lysates may run through a third protein. Some results given as binding are weak or reduced against the parent protein; the word gives no strength.

The target of the test is Triosephosphate isomerase 1 (TPI1) (human (endogenous in MDA-MB-231 and T47D)) (UniProt P60174). The experiment in a line: co-IP; antibodies (TPI1, CDCA5 or P62) on protein A/G magnetic beads at 4 °C for 1 h, then incubated with cell lysates; western blot of the precipitate; TPI1 with P62 in MDA-MB-231 and T47D cells. On the technique in general: In western blotting, separated proteins are transferred to a membrane and probed.

On to “Cell division cycle associated 5 (CDCA5) (from UniProt Q96FF9 1-252)”, for which the binding result is recorded as “binds”.

As for “Sequestosome-1 (SQSTM1)/P62 (from UniProt Q13501 1-440)”, the binding result is “binds”.
